Laboratory results as given in PMC2821923.
Substitutions are numbered along the chain they refer to. Results are given in words; binding and its absence hold for the method and conditions named. In cells and extracts the contact can be indirect. Some binding calls cover weakened binding; strength is not graded here. Tags and fused reporters may be left off the sequences shown.

The chains behind the UniProt entries cited, without tags or fusion partners.
UniProt P69853: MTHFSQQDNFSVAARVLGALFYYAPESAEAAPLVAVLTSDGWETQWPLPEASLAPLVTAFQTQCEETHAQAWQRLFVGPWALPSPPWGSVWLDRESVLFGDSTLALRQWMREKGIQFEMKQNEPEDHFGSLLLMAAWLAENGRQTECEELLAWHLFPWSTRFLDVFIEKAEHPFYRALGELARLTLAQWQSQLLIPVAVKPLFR

Columns and labels:
Assay in all cases: split reporter; split YFP BiFC in living TG1 ΔtatABCE cells (TatA also in ΔtatAE, TatB/TatC also in ΔtatB and ΔtatC); median fluorescence by flow cytometry against unfused Y1 or Y2 controls, fluorescence microscopy
[1] = biological target: T1, TatC fused to a YFP fragment (TatC-Y1; TatC-Y2) (E. coli) (UniProt P69423)
T1 sequence: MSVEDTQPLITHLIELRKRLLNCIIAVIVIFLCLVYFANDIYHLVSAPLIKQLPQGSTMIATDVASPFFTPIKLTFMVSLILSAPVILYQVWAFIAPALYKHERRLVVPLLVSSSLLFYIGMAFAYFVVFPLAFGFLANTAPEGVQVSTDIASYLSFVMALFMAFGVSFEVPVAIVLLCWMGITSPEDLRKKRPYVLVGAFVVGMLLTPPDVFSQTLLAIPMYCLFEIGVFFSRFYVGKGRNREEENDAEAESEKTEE

[2] = biological target: T2, TatB fused to a YFP fragment (TatB-Y1; TatB-Y2) (E. coli) (UniProt P69425)
T2 sequence: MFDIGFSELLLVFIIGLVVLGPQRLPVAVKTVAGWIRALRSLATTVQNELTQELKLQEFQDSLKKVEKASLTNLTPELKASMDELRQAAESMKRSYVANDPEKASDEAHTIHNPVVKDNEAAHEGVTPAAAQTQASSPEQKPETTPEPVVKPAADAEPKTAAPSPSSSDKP

[3] = biological target: T3, TatC(P48A) fused to a YFP fragment (P48A-Y1; P48A-Y2) (E. coli) (UniProt P69423)
T3 sequence: T1 sequence with P48A

Measured: binding

DmsD fused to a YFP fragment (DmsD-Y2; DmsD-Y1) (from UniProt P69853 1-204)
binds: all assays above
